No constants are given. Whether binding was seen depends on the method and setting. For part of these data: Binding seen in cells or lysates may run through a third protein. Some entries that bind do so weakly or less than the wild type. For part of these data: Sequences can lack the tags named with a protein.

Sequences of proteins named here, by UniProt entry; tags and fusion partners are left off. A change or cut given only in a name is not applied to a line headed by its entry. A line that says so, or that is headed by a name, gives the form on record, which may keep a tag or linker. Residues count along the entry.
UniProt P21333: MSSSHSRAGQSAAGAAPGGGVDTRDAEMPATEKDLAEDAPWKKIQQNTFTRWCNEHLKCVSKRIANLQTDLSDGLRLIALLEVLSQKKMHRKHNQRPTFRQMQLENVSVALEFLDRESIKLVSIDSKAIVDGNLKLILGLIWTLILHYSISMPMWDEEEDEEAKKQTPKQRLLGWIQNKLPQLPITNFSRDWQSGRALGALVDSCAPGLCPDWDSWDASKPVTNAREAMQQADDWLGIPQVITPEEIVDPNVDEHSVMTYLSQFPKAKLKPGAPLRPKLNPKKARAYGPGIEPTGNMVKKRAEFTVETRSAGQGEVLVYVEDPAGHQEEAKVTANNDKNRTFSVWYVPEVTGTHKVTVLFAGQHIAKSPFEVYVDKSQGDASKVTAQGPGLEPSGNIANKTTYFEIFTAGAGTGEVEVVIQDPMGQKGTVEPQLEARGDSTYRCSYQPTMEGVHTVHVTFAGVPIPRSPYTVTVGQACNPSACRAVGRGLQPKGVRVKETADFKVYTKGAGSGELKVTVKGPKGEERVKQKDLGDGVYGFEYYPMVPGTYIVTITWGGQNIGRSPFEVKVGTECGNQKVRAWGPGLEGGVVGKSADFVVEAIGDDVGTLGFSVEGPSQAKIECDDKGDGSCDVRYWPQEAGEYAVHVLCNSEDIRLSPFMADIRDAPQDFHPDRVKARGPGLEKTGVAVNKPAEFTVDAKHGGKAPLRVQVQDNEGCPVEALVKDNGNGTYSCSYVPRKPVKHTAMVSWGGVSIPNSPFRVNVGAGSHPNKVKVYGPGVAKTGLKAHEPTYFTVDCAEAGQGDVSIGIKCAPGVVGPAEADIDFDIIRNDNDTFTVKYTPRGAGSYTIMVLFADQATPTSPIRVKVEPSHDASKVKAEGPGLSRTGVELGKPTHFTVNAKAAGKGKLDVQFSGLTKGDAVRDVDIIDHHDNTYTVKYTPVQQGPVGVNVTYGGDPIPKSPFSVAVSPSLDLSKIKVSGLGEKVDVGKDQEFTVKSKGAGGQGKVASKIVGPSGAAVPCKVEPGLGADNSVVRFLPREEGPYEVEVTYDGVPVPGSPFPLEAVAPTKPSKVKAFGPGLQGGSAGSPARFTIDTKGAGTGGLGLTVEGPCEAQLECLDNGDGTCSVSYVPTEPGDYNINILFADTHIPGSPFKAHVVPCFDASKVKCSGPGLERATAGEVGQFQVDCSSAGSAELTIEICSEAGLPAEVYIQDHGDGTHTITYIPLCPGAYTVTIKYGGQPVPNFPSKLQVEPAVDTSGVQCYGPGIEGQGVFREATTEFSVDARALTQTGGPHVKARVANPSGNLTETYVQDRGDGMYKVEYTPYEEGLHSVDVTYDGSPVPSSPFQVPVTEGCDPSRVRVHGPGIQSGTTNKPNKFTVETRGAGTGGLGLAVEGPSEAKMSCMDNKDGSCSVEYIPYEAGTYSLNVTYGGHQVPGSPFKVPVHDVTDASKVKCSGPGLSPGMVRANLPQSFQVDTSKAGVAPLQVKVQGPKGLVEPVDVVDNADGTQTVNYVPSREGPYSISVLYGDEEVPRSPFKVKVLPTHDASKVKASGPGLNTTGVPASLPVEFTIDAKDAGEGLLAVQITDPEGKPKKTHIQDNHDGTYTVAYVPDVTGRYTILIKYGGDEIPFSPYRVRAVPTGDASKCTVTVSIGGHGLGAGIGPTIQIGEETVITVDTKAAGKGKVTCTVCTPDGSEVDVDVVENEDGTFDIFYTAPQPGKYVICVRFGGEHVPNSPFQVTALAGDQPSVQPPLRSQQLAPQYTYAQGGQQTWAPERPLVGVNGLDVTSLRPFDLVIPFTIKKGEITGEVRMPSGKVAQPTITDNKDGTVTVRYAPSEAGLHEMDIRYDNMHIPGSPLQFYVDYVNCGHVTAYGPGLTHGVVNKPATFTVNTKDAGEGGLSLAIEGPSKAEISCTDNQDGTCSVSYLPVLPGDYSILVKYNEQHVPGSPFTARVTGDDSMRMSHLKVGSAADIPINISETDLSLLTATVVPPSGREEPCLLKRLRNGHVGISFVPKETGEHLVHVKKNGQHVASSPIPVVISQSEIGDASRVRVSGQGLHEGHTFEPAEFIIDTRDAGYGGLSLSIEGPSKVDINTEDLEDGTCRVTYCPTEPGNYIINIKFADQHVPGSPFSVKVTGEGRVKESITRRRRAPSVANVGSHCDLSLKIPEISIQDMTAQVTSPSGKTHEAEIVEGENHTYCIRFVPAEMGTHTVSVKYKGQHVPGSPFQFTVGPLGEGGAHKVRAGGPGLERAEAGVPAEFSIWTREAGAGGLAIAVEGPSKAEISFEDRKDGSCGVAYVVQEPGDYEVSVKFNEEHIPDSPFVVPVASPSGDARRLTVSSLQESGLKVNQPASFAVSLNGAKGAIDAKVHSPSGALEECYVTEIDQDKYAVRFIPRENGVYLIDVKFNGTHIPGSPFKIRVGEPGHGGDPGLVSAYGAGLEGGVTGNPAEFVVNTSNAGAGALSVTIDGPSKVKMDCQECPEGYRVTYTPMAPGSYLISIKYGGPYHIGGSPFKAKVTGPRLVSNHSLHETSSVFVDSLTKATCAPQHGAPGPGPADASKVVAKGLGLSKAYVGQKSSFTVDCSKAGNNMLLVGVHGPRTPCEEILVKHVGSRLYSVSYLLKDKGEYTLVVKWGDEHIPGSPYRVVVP
GST-tagged filamin A C-terminal tail (amino acids 2264-2648): residues 2264-2647 of P21333
UniProt Q02248: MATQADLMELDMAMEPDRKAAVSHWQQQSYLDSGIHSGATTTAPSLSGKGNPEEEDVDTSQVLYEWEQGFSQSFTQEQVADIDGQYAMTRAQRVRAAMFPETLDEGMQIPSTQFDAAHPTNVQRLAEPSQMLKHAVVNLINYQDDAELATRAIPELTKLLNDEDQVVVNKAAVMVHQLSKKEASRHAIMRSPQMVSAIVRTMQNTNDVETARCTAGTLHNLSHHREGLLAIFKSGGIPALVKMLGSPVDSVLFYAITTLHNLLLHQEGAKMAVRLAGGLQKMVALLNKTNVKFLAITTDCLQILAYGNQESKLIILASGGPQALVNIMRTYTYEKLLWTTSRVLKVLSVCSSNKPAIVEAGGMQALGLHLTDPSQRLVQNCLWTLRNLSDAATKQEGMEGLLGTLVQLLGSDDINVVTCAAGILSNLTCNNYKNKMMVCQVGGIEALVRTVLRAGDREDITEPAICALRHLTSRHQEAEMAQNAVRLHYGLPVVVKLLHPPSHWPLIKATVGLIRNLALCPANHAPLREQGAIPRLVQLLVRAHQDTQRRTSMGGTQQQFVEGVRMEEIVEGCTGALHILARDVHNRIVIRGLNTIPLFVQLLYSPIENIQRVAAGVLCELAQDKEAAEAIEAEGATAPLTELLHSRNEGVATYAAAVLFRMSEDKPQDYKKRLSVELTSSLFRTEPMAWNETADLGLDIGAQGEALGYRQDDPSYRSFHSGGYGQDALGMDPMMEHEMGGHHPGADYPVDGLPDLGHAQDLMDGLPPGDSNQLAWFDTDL
GST-tagged β-catenin C-terminal tail (amino acids 734-782): residues 734-781 of Q02248
UniProt P08100: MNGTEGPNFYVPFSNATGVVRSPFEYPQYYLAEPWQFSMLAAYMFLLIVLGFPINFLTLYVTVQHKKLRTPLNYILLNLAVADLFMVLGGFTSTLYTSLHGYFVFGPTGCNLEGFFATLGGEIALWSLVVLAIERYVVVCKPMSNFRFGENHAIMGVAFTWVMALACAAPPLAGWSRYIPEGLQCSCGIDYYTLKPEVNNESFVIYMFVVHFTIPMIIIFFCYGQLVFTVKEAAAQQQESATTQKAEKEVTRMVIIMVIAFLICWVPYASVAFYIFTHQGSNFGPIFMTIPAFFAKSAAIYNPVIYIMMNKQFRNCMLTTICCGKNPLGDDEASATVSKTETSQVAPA

The target in assay [1] is GST-tagged JAM-B C-terminal tail (amino acids 257-299) (mouse) (UniProt Q9JI59). Description: pull-down.
For assay [2], the target named is GST-tagged filamin A C-terminal tail (amino acids 2264-2648) (UniProt P21333). Description: pull-down.
Assay [3] concerns the target GST-tagged β-catenin C-terminal tail (amino acids 734-782) (mouse) (UniProt Q02248). The assay can be described thus: pull-down.
For assay [4], the target named is T1, JAM-B (yeast two-hybrid) (UniProt Q9JI59).
T1 sequence: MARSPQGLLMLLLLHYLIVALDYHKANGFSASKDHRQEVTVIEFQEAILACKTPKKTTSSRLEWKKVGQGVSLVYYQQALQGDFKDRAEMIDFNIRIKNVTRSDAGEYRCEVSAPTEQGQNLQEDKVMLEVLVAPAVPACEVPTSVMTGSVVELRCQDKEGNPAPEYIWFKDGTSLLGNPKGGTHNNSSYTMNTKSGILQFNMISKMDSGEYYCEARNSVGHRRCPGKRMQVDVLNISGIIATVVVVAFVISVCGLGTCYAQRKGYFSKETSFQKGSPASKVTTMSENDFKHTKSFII
Description: two-hybrid.

Assay [5] concerns the target filamin A (yeast two-hybrid) (UniProt P21333). Description: two-hybrid.
For assay [6], the target named is β-catenin (yeast two-hybrid) (UniProt Q02248). The assay can be described thus: two-hybrid.
Assay [7] deals with GFP-rhodopsin (human) (UniProt P08100). Description: co-IP.
For assay [8], the target named is rhodopsin, endogenous in human retina (human (endogenous in retina)) (UniProt P08100). The assay can be described thus: proximity ligation.

B1: His-tagged harmonin_a1 (protein, UniProt Q9Y6N9-1 1-552)
chain: MDRKVAREFRHKVDFLIENDAEKDYLYDVLRMYHQTMDVAVLVGDLKLVINEPSRLPLFDAIRPLIPLKHQVEYDQLTPRRSRKLKEVRLDRLHPEGLGLSVRGGLEFGCGLFISHLIKGGQADSVGLQVGDEIVRINGYSISSCTHEEVINLIRTKKTVSIKVRHIGLIPVKSSPDEPLTWQYVDQFVSESGGVRGSLGSPGNRENKEKKVFISLVGSRGLGCSISSGPIQKPGIFISHVKPGSLSAEVGLEIGDQIVEVNGVDFSNLDHKEAVNVLKSSRSLTISIVAAAGRELFMTDRERLAEARQRELQRQELLMQKRLAMESNKILQEQQEMERQRRKEIAQKAAEENERYRKEMEQIVEEEEKFKKQWEEDWGSKEQLLLPKTITAEVHPVPLRKPKYDQGVEPELEPADDLDGGTEEQGEQDFRKYEEGFDPYSMFTPEQIMGKDVRLLRIKKEGSLDLALEGGVDSPIGKVVVSAVYERGAAERHGGIVKGDEIMAINGKIVTDYTLAEAEAALQKAWNQGGDWIDLVVAVCPPKEYDDELTFF
Consider B1, for which the binding entry in assay [1], in assay [2] and in assay [3] was “binds” each time.

B2: harmonin (yeast two-hybrid) (protein, UniProt Q9Y6N9 1-552)
chain: MDRKVAREFRHKVDFLIENDAEKDYLYDVLRMYHQTMDVAVLVGDLKLVINEPSRLPLFDAIRPLIPLKHQVEYDQLTPRRSRKLKEVRLDRLHPEGLGLSVRGGLEFGCGLFISHLIKGGQADSVGLQVGDEIVRINGYSISSCTHEEVINLIRTKKTVSIKVRHIGLIPVKSSPDEPLTWQYVDQFVSESGGVRGSLGSPGNRENKEKKVFISLVGSRGLGCSISSGPIQKPGIFISHVKPGSLSAEVGLEIGDQIVEVNGVDFSNLDHKEAVNVLKSSRSLTISIVAAAGRELFMTDRERLAEARQRELQRQELLMQKRLAMESNKILQEQQEMERQRRKEIAQKAAEENERYRKEMEQIVEEEEKFKKQWEEDWGSKEQLLLPKTITAEVHPVPLRKPKYDQGVEPELEPADDLDGGTEEQGEQDFRKYEEGFDPYSMFTPEQIMGKDVRLLRIKKEGSLDLALEGGVDSPIGKVVVSAVYERGAAERHGGIVKGDEIMAINGKIVTDYTLAEAEAALQKAWNQGGDWIDLVVAVCPPKEYDDELTFF
In the case of B2, the binding entry in assay [4], in assay [5] and in assay [6] was “binds” in each case.

B3: harmonin_a1-HA (protein, UniProt Q9Y6N9-1 1-552)
chain: MDRKVAREFRHKVDFLIENDAEKDYLYDVLRMYHQTMDVAVLVGDLKLVINEPSRLPLFDAIRPLIPLKHQVEYDQLTPRRSRKLKEVRLDRLHPEGLGLSVRGGLEFGCGLFISHLIKGGQADSVGLQVGDEIVRINGYSISSCTHEEVINLIRTKKTVSIKVRHIGLIPVKSSPDEPLTWQYVDQFVSESGGVRGSLGSPGNRENKEKKVFISLVGSRGLGCSISSGPIQKPGIFISHVKPGSLSAEVGLEIGDQIVEVNGVDFSNLDHKEAVNVLKSSRSLTISIVAAAGRELFMTDRERLAEARQRELQRQELLMQKRLAMESNKILQEQQEMERQRRKEIAQKAAEENERYRKEMEQIVEEEEKFKKQWEEDWGSKEQLLLPKTITAEVHPVPLRKPKYDQGVEPELEPADDLDGGTEEQGEQDFRKYEEGFDPYSMFTPEQIMGKDVRLLRIKKEGSLDLALEGGVDSPIGKVVVSAVYERGAAERHGGIVKGDEIMAINGKIVTDYTLAEAEAALQKAWNQGGDWIDLVVAVCPPKEYDDELTFF
With B3, in assay [7], the binding entry is reported as “binds”.

B4: RFP-harmonin a1 (protein, UniProt Q9Y6N9-1 1-552)
chain: MDRKVAREFRHKVDFLIENDAEKDYLYDVLRMYHQTMDVAVLVGDLKLVINEPSRLPLFDAIRPLIPLKHQVEYDQLTPRRSRKLKEVRLDRLHPEGLGLSVRGGLEFGCGLFISHLIKGGQADSVGLQVGDEIVRINGYSISSCTHEEVINLIRTKKTVSIKVRHIGLIPVKSSPDEPLTWQYVDQFVSESGGVRGSLGSPGNRENKEKKVFISLVGSRGLGCSISSGPIQKPGIFISHVKPGSLSAEVGLEIGDQIVEVNGVDFSNLDHKEAVNVLKSSRSLTISIVAAAGRELFMTDRERLAEARQRELQRQELLMQKRLAMESNKILQEQQEMERQRRKEIAQKAAEENERYRKEMEQIVEEEEKFKKQWEEDWGSKEQLLLPKTITAEVHPVPLRKPKYDQGVEPELEPADDLDGGTEEQGEQDFRKYEEGFDPYSMFTPEQIMGKDVRLLRIKKEGSLDLALEGGVDSPIGKVVVSAVYERGAAERHGGIVKGDEIMAINGKIVTDYTLAEAEAALQKAWNQGGDWIDLVVAVCPPKEYDDELTFF
In the case of B4, the binding entry in assay [7] was “binds”.

B5: harmonin, endogenous in human retina (protein, UniProt Q9Y6N9 1-552)
chain: MDRKVAREFRHKVDFLIENDAEKDYLYDVLRMYHQTMDVAVLVGDLKLVINEPSRLPLFDAIRPLIPLKHQVEYDQLTPRRSRKLKEVRLDRLHPEGLGLSVRGGLEFGCGLFISHLIKGGQADSVGLQVGDEIVRINGYSISSCTHEEVINLIRTKKTVSIKVRHIGLIPVKSSPDEPLTWQYVDQFVSESGGVRGSLGSPGNRENKEKKVFISLVGSRGLGCSISSGPIQKPGIFISHVKPGSLSAEVGLEIGDQIVEVNGVDFSNLDHKEAVNVLKSSRSLTISIVAAAGRELFMTDRERLAEARQRELQRQELLMQKRLAMESNKILQEQQEMERQRRKEIAQKAAEENERYRKEMEQIVEEEEKFKKQWEEDWGSKEQLLLPKTITAEVHPVPLRKPKYDQGVEPELEPADDLDGGTEEQGEQDFRKYEEGFDPYSMFTPEQIMGKDVRLLRIKKEGSLDLALEGGVDSPIGKVVVSAVYERGAAERHGGIVKGDEIMAINGKIVTDYTLAEAEAALQKAWNQGGDWIDLVVAVCPPKEYDDELTFF
Take B5: the binding result in assay [8] was “binds”.

(Values after paper doi:10.1101/2021.08.27.457962.)
